This is one part of the list. These are further read-outs of the screen, such as a control signal, another cell line or another target. No call is given for them. The list favours compounds with an active or inconclusive main result. Potencies come from curve fits of mixed quality, noted in brackets.
Test: qHTS Assay to Find Inhibitors of Chronic Active B-Cell Receptor Signaling
Settings: ABC-DLBCL IkBa-CBG/CBR reporter, luminescence ratio (green luciferase fused to IkBa over red control in TMD8 lymphoma cells), 4 h
Method in brief: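 TMD8 ABC-DLBCL cells carrying doxycycline-inducible green luciferase fused to IkappaBalpha plus unfused red luciferase were exposed to compounds (up to 46 uM) for 4 hrs at 37C. Activity came from the overlap-corrected green/red luminescence ratio.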

[1] = measured here: CBR red luminescence, cell number
[2] = measured here: IkBa-CBG green luminescence

Structure (SMILES) | AC50 [1] | AC50 [2]
CCOC(=O)Cc1csc(NC(=O)CCCCCN2C(=O)c3ccccc3C2=O)n1 | 35.5 µM [falling, single point] | 
COc1ccccc1C(C#N)c1cccc(Cl)n1 (stereo not given) | 35.5 µM [rising, single point] | 
CC(CC(=O)N1CCN(c2ccccc2)CC1)S(=O)(=O)c1ccc2c(c1)NC(=O)CO2 (stereo not given) | 35.5 µM [falling, single point] | 
O=S(=O)(Nc1ccc(Br)cc1)c1cccc(NC(=S)NCCN2CCOCC2)c1 | 20 µM [falling, single point] | 
Cc1cc(C)c2nc(N3C(=O)C(O)=C(C(=O)c4ccco4)C3c3cccc(O)c3)sc2c1 (stereo not given) | 20.6 µM [rising, single point] | 16.4 µM [falling, single point]
CC1CCCN(CCCNC(=O)c2cc3c(Cl)nc4ccccc4c3s2)C1 (stereo not given) | 11.2 µM [falling, single point] | 12.6 µM [rising, partial curve, poor fit]
CCc1cccc(CC)c1NC(=S)NCCc1c(C)[nH]c2ccc(C)cc12 | 29.1 µM [falling, single point] | 18.4 µM [rising, partial curve, poor fit]
CSc1nc2cc(Oc3cccc(Cl)c3Cl)c(Cl)cc2[nH]1 | 35.5 µM [falling, single point] | 
NCCNC[C@@H]1COC2(CCCCCCCCCCC2)O1 | 10 µM [falling, partial curve, poor fit] | 
CCN1C(=O)CC(N2CCOCC2)C1=O (stereo not given) | 29.1 µM [rising, single point] | 
Cc1ccc(NC(=O)CSc2ccc(S(=O)(=O)N3CCCC3)cn2)cc1F | 0.731 µM [falling, full curve] | 
CCCCc1c(C)nc2cc(-c3ccco3)[nH]n2c1=O | 2.82 µM [falling, partial curve, poor fit] | 
CCOC(=O)c1ccc(NC(=S)NCCc2ccc(F)cc2)cc1 | 0.562 µM [falling, full curve] | 
CN(Cc1ccco1)S(=O)(=O)c1nnc(NC(=O)c2ccccc2Cl)s1 | 28.2 µM [rising, single point] | 
CC(=O)Nc1ccc(Sc2ncccc2C(=O)Nc2ccc(F)cc2)cn1 | 7.94 µM [falling, partial curve, poor fit] | 
O=C(CN1C(=O)C2CC=CCC2C1=O)Nc1nnc(SCc2c(Cl)cccc2Cl)s1 (stereo not given) | 23.1 µM [falling, single point] | 
CC12CC(c3ccccc3O1)N(C(=O)c1ccco1)C(=S)N2c1ccc(F)cc1 (stereo not given) | 35.5 µM [falling, single point] | 
O=C(CCc1ccccc1)NC1CCS(=O)(=O)C1 (stereo not given) | 5.17 µM [rising, full curve] | 
COc1ccc(CSc2nnc(C)n2N)cc1Br | 12.6 µM [rising, single point] | 
O=C(CNc1ccc(F)cc1Cl)Nc1cccc(S(=O)(=O)N2CCCCC2)c1 | 16.4 µM [falling, single point] | 20.6 µM [rising, partial curve, poor fit]

Shown with each value named: 3 of the compounds above
CSc1nc2cc(Oc3cccc(Cl)c3Cl)c(Cl)cc2[nH]1
  AC50 [1]: 35.5 µM [falling, single point]
NCCNC[C@@H]1COC2(CCCCCCCCCCC2)O1
  AC50 [1]: 10 µM [falling, partial curve, poor fit]
CCN1C(=O)CC(N2CCOCC2)C1=O (stereo not given)
  AC50 [1]: 29.1 µM [rising, single point]

Next results.

Structure (SMILES) | AC50 [1] | AC50 [2]
COCCN1CCn2c(nc3cc(Nc4nnc(C)c5ccccc45)ccc32)C1 | 35.5 µM [falling, single point] | 
CCCCN(CC)C(=O)Cc1ccc(Br)cc1 | 32.6 µM [rising, single point] | 
CN(c1ccccc1)c1ccc(/C=C/[N+](=O)[O-])cc1 | 29.1 µM [falling, single point] | 23.1 µM [rising, partial curve, poor fit]
CSc1nsc(/C=C/Nc2ccc(C(=O)O)cc2)c1C#N | 35.5 µM [falling, single point] | 
O=[N+]([O-])c1ccc(C2=NN(c3ccccc3)C(c3ccco3)C2)cc1 (stereo not given) | 3.98 µM [rising, partial curve] | 
O=c1nc2sc3ccccc3n2c(=O)n1-c1ccc(Cl)cc1 | 1.12 µM [falling, full curve] | 
CCCCC(=O)Nc1ccc(Br)cn1 | 23.1 µM [falling, single point] | 
COc1ccc2nc(SCC(=O)Nc3ccccc3C)[nH]c2c1 | 7.94 µM [falling, partial curve] | 
CCc1c(C)sc2nc(SCC(=O)Nc3cc(C)on3)n(CCOC)c(=O)c12 | 29.1 µM [rising, single point] | 
C[C@H](CO)N1C[C@H](C)[C@@H](CN(C)C(=O)Nc2ccc3c(c2)OCO3)Oc2c(NC(=O)Nc3ccc(C(F)(F)F)cc3)cccc2C1=O | 29.1 µM [falling, single point] | 
O=C(Nc1ccncc1)Nc1ccccc1Cl | 10 µM [falling, partial curve, poor fit] | 
CCCOc1ccc(-c2c(C(=O)N/N=C/c3ccc(C)o3)nnn2-c2nonc2N)cc1 | 7.94 µM [falling, partial curve] | 
COc1ccc(CC(=O)Oc2cc(C)ccc2C)cc1 | 35.5 µM [rising, single point] | 
COc1cc(OC)cc(C(=O)Oc2ccc(/C=N/Nc3nc4ccccc4s3)cc2OC)c1 | 0.103 µM [rising, full curve] | 
CC(C)Sc1nnc(NC(=O)c2ccco2)s1 | 6.31 µM [falling, partial curve, poor fit] | 
O=C(CC(=O)Nc1ccccc1F)Nc1ccccc1F | 5.01 µM [rising, partial curve, poor fit] | 
Cc1cccc(-c2noc(CN(C)S(=O)(=O)c3cc(Cl)ccc3Cl)n2)c1 | 8.2 µM [rising, partial curve, poor fit] | 
COc1ccc(/C=C2\SC(=S)N(CCC(=O)Nc3ccc(C(=O)O)cc3)C2=O)cc1OC | 3.98 µM [falling, full curve] | 
CC(=O)NC1(c2nnnn2CCOC(=O)Nc2ccc(Cl)cc2)CCCCC1 | 10 µM [rising, partial curve] | 
CC(C)COc1nc2ccccc2c(=O)n1OCC(=O)O | 5.17 µM [rising, partial curve, poor fit] | 

Source: PubChem BioAssay AID493014 (National Center for Advancing Translational Sciences (NCATS), 2011)
